Key:
[1] = test system: enzymes secreted from intact Arabidopsis seedlings; assay: In vitro cleavage assay with Ler seedlings, MALDI-Tof MS; conditions: for Internal cleavage after incubation with Ler seedlings / Removal of terminal residues after incubation with Ler seedlings: 10 μM peptide, 5 seedlings in 200 μL medium, 22°C, 3-d incubation, MALDI-Tof MS
[2] = test system: enzymes released by Arabidopsis seedlings; assay: In vitro cleavage assay of fusion proteins with seedlings, Q-Tof MS/MS

Molecule | Internal cleavage after incubation with Ler seedlings [1] | Removal of terminal residues after incubation with Ler seedlings [1] | further results
EELRTVPSGPDPLHH [EEL-CLV3p15, CLV3p12 with additional 3 N-terminal residues] | No internal cleavages | removal of the C-terminal His residue was observed, but not N-terminal residues | 
FNESMRLSPGGPDPRHH [FNESM-CLE1p17, synthesized CLE1 peptide with 5 N-terminal flanking residues] | an internal cleavage was detected between Met (M) and Arg (R) |  | 
LHEELRTVPSGPDPLHH [LHEEL-CLV3p17, CLV3p12 with additional 5 N-terminal residues] | cleavages before Arg70 and Thr71 | gradual removal of terminal residues | 
MRLSPGGPDPRHH [M-CLE1p13, synthesized CLE1 peptide with 1 N-terminal flanking residue] |  | gradual trimmings of terminal residues | 
RLSPGGPDPRHH [CLE1p12, synthesized CLE1 peptide with 0 N-terminal flanking residues] |  | gradual trimmings of terminal residues | 
RTVPSGPDPLHH [CLV3p12, chemically synthesized 12-AA CLV3 peptide corresponding to the CLE motif] | No internal cleavages | gradual removal of residues from both N- and C-termini | 
TH-ProCLV3: CLV3 proprotein without signal peptide, N-terminal Trx and His tags, produced in E. coli, 23.8 kD (protein, UniProt Q9XF04 22-96, looked up, pro-form N-terminal thioredoxin and His tags, CLV3 proprotein without signal peptide, N-terminal Trx and His tags, produced in E. coli, 23.8 kD) pro-form: SDLTQAHAHVQGLSNRKMMMMKMESEWVGANGEAEKAKTKGLGLHEELRTVPSGPDPLHHHVNPPRQPRNNFQLP |  |  | Cleavage of fusion protein after inoculation with Arabidopsis seedlings ([1]; 10 μM fusion protein, 24 hr, releasing CLV3p12 and CLV3p13): efficiently cleaved; Internal cleavage sites of the fusion protein ([2]; co-cultivation with Ler seedlings, 24 hr, Q-Tof MS/MS, SEQUEST): before Met39 and before Arg70
TH-ProCLV3Leu69Ala: TH-ProCLV3 fusion protein with Leu69Ala substitution, produced in E. coli (protein, UniProt Q9XF04 22-96, looked up, variant L69A, pro-form N-terminal thioredoxin and His tags, TH-ProCLV3 fusion protein with Leu69Ala substitution, produced in E. coli) pro-form: SDLTQAHAHVQGLSNRKMMMMKMESEWVGANGEAEKAKTKGLGLHEEARTVPSGPDPLHHHVNPPRQPRNNFQLP |  |  | Peptide fragment profile released from fusion protein ([2]; co-cultivation with wildtype seedlings, Q-Tof MS/MS of medium samples): no peptide fragment with C-terminal Ala69 was detected

Reference: publication PMC3878228 (BMC Plant Biology, 2013)
